# Results are given in words; binding and its absence hold for the method and conditions named. Binding seen in cells or lysates may run through a third protein. Some binding calls cover weakened binding; strength is not graded here. For part of these data: Tags and fused reporters may be left off the sequences shown.
# By UniProt entry, the sequences of proteins in these tests, tags left out.
# UniProt Q07812: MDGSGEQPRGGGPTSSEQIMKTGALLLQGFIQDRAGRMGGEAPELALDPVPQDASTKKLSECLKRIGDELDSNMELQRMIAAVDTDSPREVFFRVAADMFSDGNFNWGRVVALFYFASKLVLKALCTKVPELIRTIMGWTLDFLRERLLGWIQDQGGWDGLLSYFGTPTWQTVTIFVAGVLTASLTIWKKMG
# Legend:
# [1] = molecular target: T1, protein phosphatase Mg2+/Mn2+ dependent 1F (PPM1F) (human (endogenous in MDA-MB-231)) (UniProt P49593); assay: co-IP; 200 ug lysate of MDA-MB-231 cells treated with or without nicotine (10 uM, 24 hours); precipitated with anti-p-p53, anti-p-BAX or anti-PPM1F antibodies (2 ug) and protein A-agarose beads; Western blotting for p53 (total), p-p53 (Ser-20), BAX (total), p-BAX (Ser-184) and PPM1F
# T1 sequence: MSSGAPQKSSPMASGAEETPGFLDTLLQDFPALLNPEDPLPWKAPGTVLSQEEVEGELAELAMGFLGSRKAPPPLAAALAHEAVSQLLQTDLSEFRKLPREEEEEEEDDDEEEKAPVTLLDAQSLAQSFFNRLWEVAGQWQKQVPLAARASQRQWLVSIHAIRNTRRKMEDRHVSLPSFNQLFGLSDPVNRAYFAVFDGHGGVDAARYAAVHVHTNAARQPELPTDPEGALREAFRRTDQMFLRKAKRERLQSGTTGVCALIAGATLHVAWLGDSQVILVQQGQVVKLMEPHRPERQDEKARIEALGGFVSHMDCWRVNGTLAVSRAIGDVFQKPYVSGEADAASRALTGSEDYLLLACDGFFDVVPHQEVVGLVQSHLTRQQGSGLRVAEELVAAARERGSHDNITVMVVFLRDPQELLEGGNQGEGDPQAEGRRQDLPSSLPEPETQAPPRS
# [2] = molecular target: T2, recombinant PPM1F with a His Tag (6x) and a c-Myc-Epitope-Tag (human) (UniProt P49593); assay: FRET or BRET; acceptor photobleaching FRET by confocal microscopy; cells treated with nicotine (10 uM, 24 hours) and stained with anti-PPM1F (FITC-labeled, donor) and anti-p-p53 (Ser-20) or anti-p-BAX (Ser-184) (rhodamine-labeled, acceptor) antibodies
# T2 sequence: T1 sequence
binding [1],binding [2],Substance
binds,–,BAX (total) (from UniProt Q07812 1-192)
binds,binds,phosphorylated BAX (Ser-184) (from UniProt Q07812 1-192)

# — publication PMC5363601
